Data source: PubChem BioAssay AID743121 (NCATS, 2013)
Here is one part, drawn at random, of about 26,000 reagents. 167 of them (0.63%) count as active. 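Calls are per gene from RSA p-values that are not deposited; an individual active-marked siRNA can sensitise only weakly.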 The numbers tell different reagents against one gene apart. Not all columns of the deposit are shown.

Test: 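Genes whose silencing strengthens cell killing by camptothecin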 (primary screen)
Cell system: MDA-MB-231 cells, a human breast cancer line
Reagent: single siRNA against human genes, 20 nM siRNA (0.8 pmol per well)
Time to read-out: 120 h (drug added 48 h after transfection, read 72 h later)
Treatment: camptothecin 20 nM (about EC30) for 72 h; vehicle 0.1% DMSO in parallel plates
Detection: 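Cell viability by ATP luminescence (CellTiter-Glo) as % of non-targeting siRNA wells, and the log2 ratio of viability without drug over viability with camptothecin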
Reading the numbers: log2 vehicle/camptothecin viability: higher = stronger sensitisation to camptothecin
Call rule: 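Each gene scored by redundant siRNA activity (RSA) over its individual siRNA ratios; a gene is called active at p < 0.001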

no.	target gene	reagent no.	log2 vehicle/camptothecin viability	call
1	YAF2	1	-0.272	inactive
2	YAF2	2	-0.302	inactive
3	YAF2	3	0.0138	inactive
4	MMP15	1	0.0535	inactive
5	MMP15	2	-0.37	inactive
6	MMP15	3	0.311	inactive
7	MMP15	4	-0.334	inactive
8	TBC1D30	1	0.286	inactive
9	TBC1D30	2	-0.249	inactive
10	TBC1D30	3	-0.193	inactive
11	TBC1D30	4	-0.492	inactive
12	SLC12A1	1	0.212	inactive
13	SLC12A1	2	-0.0638	inactive
14	SLC12A1	3	0.0243	inactive
15	SLC12A1	4	0.237	inactive
16	HSPA5	1	-0.494	inactive
17	HSPA5	2	-0.0354	inactive
18	HSPA5	3	-0.449	inactive
19	ABCA9	1	-0.0075	inactive
20	ABCA9	2	-0.241	inactive
21	ABCA9	3	-0.385	inactive
22	ABCA9	4	-0.291	inactive
23	ADCY7	1	0.0379	inactive
24	ADCY7	2	-0.202	inactive
25	ADCY7	3	-0.0181	inactive
26	ADCY7	4	0.333	inactive
27	AZIN1	1	-0.0836	inactive
28	AZIN1	2	-0.128	inactive
29	AZIN1	3	-0.457	inactive
30	AZIN1	4	1.98	inactive

A stretch taken from the entries so far, for reference:
no.	target gene	reagent no.	log2 vehicle/camptothecin viability	call
7	MMP15	4	-0.334	inactive
8	TBC1D30	1	0.286	inactive
9	TBC1D30	2	-0.249	inactive

Continued:
no.	target gene	reagent no.	log2 vehicle/camptothecin viability	call
31	AKT2	1	-0.147	inactive
32	AKT2	2	-0.292	inactive
33	AKT2	3	-0.41	inactive
34	AKT2	4	-0.137	inactive
35	GRM5P1	1	-0.13	inactive
36	GRM5P1	2	0.222	inactive
37	GRM5P1	3	-0.176	inactive
38	GRM5P1	4	0.409	inactive
39	ADAM17	1	-1.34	inactive
40	ADAM17	2	-0.253	inactive
41	ADAM17	3	0.00528	inactive
42	NETO2	1	0.0256	inactive
43	NETO2	2	-0.0865	inactive
44	NETO2	3	-0.0904	inactive
45	NETO2	4	-0.0836	inactive
46	HERC5	1	0.166	inactive
47	HERC5	2	-0.209	inactive
48	HERC5	3	-0.296	inactive
49	HERC5	4	-0.249	inactive
